Consider 16 compounds from PubChem BioAssay AID192 (DTP/NCI, 2004).

This experiment concerns BDF1 mice, B16 melanoma ip, median survival T/C. The experiment is described as follows: NCI In Vivo Anticancer Drug Screen. Data for tumor model B16 Melanoma (intraperitoneal) in B6D2F1 (BDF1) mice. Conditions: T/C endpoint: median survival time, higher T/C = longer survival. Put shortly:
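Survival or tumor size is measured after treatment of tumor-bearing mice and normalised to the vehicle-treated control group.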

The mark [1] stands for this setting: dose: 0.25 mg/kg/injection, schedule: Q01DX009 (ip), vehicle: saline.
Setting [2] is: dose: 1.56 mg/kg/injection, schedule: Q01DX009 (ip), vehicle: saline.
[3] abbreviates: dose: 3.12 mg/kg/injection, schedule: Q01DX009 (ip), vehicle: saline.
Setting [4] is: dose: 6.25 mg/kg/injection, schedule: Q01DX009 (ip), vehicle: saline.
Where [5] appears, read: dose: 12.5 mg/kg/injection, schedule: Q01DX009 (ip), vehicle: saline.
Where [6] appears, read: dose: 50.0 mg/kg/injection, schedule: Q01DX009 (ip), vehicle: saline with Tween-80.
[7] abbreviates: dose: 100.0 mg/kg/injection, schedule: Q01DX009 (ip), vehicle: saline with Tween-80.
[8] abbreviates: dose: 200.0 mg/kg/injection, schedule: Q01DX009 (ip), vehicle: saline with Tween-80.
Setting [9] is: dose: 400.0 mg/kg/injection, schedule: Q01DX009 (ip), vehicle: saline with Tween-80.
The mark [10] stands for this setting: dose: 100.0 mg/kg/injection, schedule: Q01DX009 (ip), vehicle: Klucel (hydroxypropylcellulose) (HPC).
[11] abbreviates: dose: 200.0 mg/kg/injection, schedule: Q01DX009 (ip), vehicle: Klucel (hydroxypropylcellulose) (HPC).
[12] abbreviates: dose: 400.0 mg/kg/injection, schedule: Q01DX009 (ip), vehicle: Klucel (hydroxypropylcellulose) (HPC).
The mark [13] stands for this setting: dose: 25.0 mg/kg/injection, schedule: Q01DX009 (ip), vehicle: saline with Tween-80.
The mark [14] stands for this setting: dose: 12.0 mg/kg/injection, schedule: Q01DX009 (ip), vehicle: saline with Tween-80.
[15] abbreviates: dose: 12.0 mg/kg/injection, schedule: Q01DX009 (ip), vehicle: saline.

The list does not hold the whole screen: it is rich in T/C values a quarter to a half above the control, in often repeated tests (any T/C) and in doses without a T/C. Further doses and runs are listed elsewhere. T/C gives the treated animals as a percentage of the vehicle group. Some entries give survivors of the animals treated and no T/C: the source holds a T/C of zero for them, seemingly a mark for toxic or unscored doses. Some doses without a T/C left all or most animals alive at the check, yet need not have been tolerated: the source hardly ever lists a survival T/C far under the control, and the zero likely stands for such cases as well. Counts of survivors are from the toxicity check (mostly the fifth day) where no day follows; animals may have died later. Schedules are NCI's codes, read here as Q, the interval in days (D) or hours (H), X, the number of doses. Some entries hold several experiments; the values are given in rising order. Some structures stand for samples that the source files as different forms (salt, stereo form or complex); doses refer to the form tested. Additions like (4×) say how often a value occurs here. Where survival is the endpoint, the PubChem record calls one and a half times the control and up active, and a quarter to a half above the control has no call in these data; cut-offs in other NCI protocols can differ. Some T/C values are followed by the survivors on the day toxicity was checked, most often the fifth; where none is given, no animal had died by that day.

`[N-]=[N+]=CC(=O)CCC(N)C(=O)O` (stereo not given): the survivor count was 10 of 10 (dose: 0.2 mg/kg/injection, schedule: Q01DX009 (ip), vehicle: saline); 6 of 6 (dose: 0.25 mg/kg/injection, schedule: Q01DX009 (ip), vehicle: saline with Tween-80); 6 of 6 under setting [1]; 10 of 10 (dose: 0.39 mg/kg/injection, schedule: Q01DX009 (ip), vehicle: saline); 6 of 6 (dose: 0.5 mg/kg/injection, schedule: Q01DX009 (ip), vehicle: saline); 10 of 10 (dose: 0.78 mg/kg/injection, schedule: Q01DX009 (ip), vehicle: saline). Further, the survivor count is, setting by setting: (dose: 1.0 mg/kg/injection, schedule: Q01DX009 (ip), vehicle: saline) 6 of 6; under setting [2], 6 of 10; under setting [3], 7 of 10 and 9 of 10; under setting [4], 1 of 10 and 5 of 10; under setting [5], 1 of 10; (dose: 25.0 mg/kg/injection, schedule: Q01DX009 (ip), vehicle: saline) 0 of 10 and 1 of 10. For the same compound, the survivor count (dose: 50.0 mg/kg/injection, schedule: Q01DX009 (ip), vehicle: saline) was 0 of 10; the survivor count (dose: 100.0 mg/kg/injection, schedule: Q01DX009 (ip), vehicle: saline) is recorded as 0 of 10; the survivor count (dose: 50.0 micrograms/kg/injection, schedule: Q01DX009 (ip), vehicle: saline) is given as 10 of 10; the survivor count (dose: 90.0 micrograms/kg/injection, schedule: Q01DX009 (ip), vehicle: saline) was 10 of 10; the survivor count (dose: 100.0 micrograms/kg/injection, schedule: Q01DX009 (ip), vehicle: saline) was 10 of 10; the survivor count (dose: 187.0 micrograms/kg/injection, schedule: Q01DX009 (ip), vehicle: saline) is 10 of 10. Besides, the survivor count (dose: 375.0 micrograms/kg/injection, schedule: Q01DX009 (ip), vehicle: saline) is 9 of 10; the survivor count (dose: 750.0 micrograms/kg/injection, schedule: Q01DX009 (ip), vehicle: saline) is on record as 10 of 10; the survivor count (dose: 1500.0 micrograms/kg/injection, schedule: Q01DX009 (ip), vehicle: saline) is 5 of 10; the survivor count (dose: 3000.0 micrograms/kg/injection, schedule: Q01DX009 (ip), vehicle: saline) is recorded as 0 of 10.

For `C[n+]1ccc(Nc2ccc(NC(=O)c3ccc(Nc4cc[n+](C)c5ccc([N+](=O)[O-])cc45)cc3[N+](=O)[O-])cc2)cc1`, the survivor count was 10 of 10 under setting [6], 10 of 10 under setting [7], 6 of 10 under setting [8] and 0 of 10 under setting [9].

On to `CCN1C(=O)CN(CCN2CC(=O)N(c3ccccc3)C2=S)C1=S`, for which the T/C is, setting by setting: (dose: 75.0 mg/kg/injection, schedule: Q01DX009 (ip), vehicle: saline with Tween-80) 135 % of control [9 of 10 alive]; under setting [7], 134 % of control.

Regarding `O=C(Oc1ccc(Cl)cc1)c1ccc(Cl)cc1`, the survivor count is, setting by setting: under setting [10], 10 of 10; (dose: 150.0 mg/kg/injection, schedule: Q04DX003 (ip), vehicle: Klucel (hydroxypropylcellulose) (HPC)) 10 of 10; under setting [11], 10 of 10; (dose: 300.0 mg/kg/injection, schedule: Q04DX003 (ip), vehicle: Klucel (hydroxypropylcellulose) (HPC)) 10 of 10; under setting [12], 10 of 10.

For `Nc1nc(N)c2cc(CNc3ccc(C(=O)NC(CC(=O)O)CC(=O)O)cc3)ccc2n1`, the survivor count (dose: 1.56 mg/kg/injection, schedule: Q01DX009 (ip), vehicle: Klucel (hydroxypropylcellulose) (HPC)) is given as 10 of 10; the survivor count (dose: 25.0 mg/kg/injection, schedule: Q01DX009 (ip), vehicle: Klucel (hydroxypropylcellulose) (HPC)) is 10 of 10; the survivor count under setting [13] is 10 of 10; the survivor count (dose: 50.0 mg/kg/injection, schedule: Q01DX009 (ip), vehicle: Klucel (hydroxypropylcellulose) (HPC)) is 10 of 10; the survivor count under setting [6] is 10 of 10; the survivor count under setting [10] is on record as 10 of 10. Besides, the survivor count was 10 of 10 under setting [7]; 10 of 10 under setting [11]; 10 of 10 under setting [8]; 9 of 10 and 10 of 10 under setting [12].

`C[CH2][Sn]1([CH2]C)[O]OC(c2ccccc2)[O]1` (stereo not given): the T/C (dose: 0.78 mg/kg/injection, schedule: Q01DX009 (ip), vehicle: saline with Tween-80) was 127 % of control. Besides, the survivor count under setting [13] is 0 of 10 and 5 of 10.

As to `COc1cc2c(c3c1c(=O)c1ccccc1n3C)C=CC(C)(C)O2`, the survivor count is 5 of 6 under setting [7] and 4 of 6 under setting [8].

For `CCOc1nc(N)c(C(N)=O)cc1C#N`, the survivor count is on record as 0 of 10 (dose: 66.0 mg/kg/injection, schedule: Q01DX009 (ip), vehicle: saline with Tween-80); 0 of 10 under setting [7]; 0 of 10 (dose: 150.0 mg/kg/injection, schedule: Q01DX009 (ip), vehicle: saline with Tween-80).

Turning to `COc1cccc2c1C(=O)c1c(O)c3c(c(O)c1C2=O)CC(O)(C(C)=O)CC3O` (stereo not given), the survivor count reads like this: under setting [1], 10 of 10; (dose: 8.0 mg/kg/injection, schedule: Q04DX003 (ip), vehicle: saline) 8 of 10.

As for `O=C(O)c1cc2ccccc2o1`, the T/C under setting [13] was 125 % of control [9 of 10 alive].

`CC(NC(=O)OC(C)(C)C)C(=O)ON1C(=O)CCC1=O` (stereo not given): the survivor count was 9 of 10 under setting [8] and 7 of 9 under setting [9].

As to `CCOC(=O)C(=CN(C(C)C)C(C)C)C(=O)OCC`, the survivor count under setting [8] was 9 of 10.

Consider `CCC(C)C(C(=O)OCCN(C)C)c1ccccc1` (stereo not given), for which, under setting [8], the survivor count is 5 of 10.

As to `CC(=O)Oc1cccc(C)c1`, the survivor count reads like this: under setting [7], 10 of 10; under setting [9], 0 of 10.

With `Nc1ccc(C(=O)Oc2ccc([N+](=O)[O-])cc2)c(O)c1`, under setting [12], the survivor count is 10 of 10.

Regarding `O=C1NC2(CCCCC2)C(=O)N1CCN(CCCl)CCCl`, the T/C was 134 % of control (dose: 1.5 mg/kg/injection, schedule: Q01DX009 (ip), vehicle: saline with Tween-80); 128, 140, 148 % of control under setting [2]; 129 % of control (dose: 3.0 mg/kg/injection, schedule: Q01DX009 (ip), vehicle: saline with Tween-80); 130 % of control [9 of 10 alive] (dose: 3.0 mg/kg/injection, schedule: Q01DX009 (ip), vehicle: saline); 135 [9 of 10 alive] and 149 % of control under setting [3]; 136 % of control (dose: 6.0 mg/kg/injection, schedule: Q01DX009 (ip), vehicle: saline with Tween-80). Also, the T/C under setting [14] is 138 % of control and the T/C under setting [15] is 125 % of control. Besides, the survivor count is 10 of 10 under setting [3]; 10 of 10 under setting [4]; 10 of 10 (2×) under setting [14]; 9 of 10 under setting [15]; 8 of 10 under setting [5]; 8 of 10 and 10 of 10 (dose: 24.0 mg/kg/injection, schedule: Q01DX009 (ip), vehicle: saline with Tween-80). For the same compound, for the setting “dose: 48.0 mg/kg/injection, schedule: Q01DX009 (ip), vehicle: saline with Tween-80”, the survivor count is given as 5 of 10.
